Data source: PubChem BioAssay AID1259405 (NCATS, 2018)
Assay: 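Knock-downs that lift recombinant protein yield in hamster ovary cells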 (primary screen). Cells: Chinese hamster CHO-K1 ovary cells with stable secreted eGFP expression. Knock-down reagent: single siRNA against mouse genes, 0.8 pmol siRNA per well (2 µl of 400 nM stock). Time to read-out: 3 days. Detection: 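Per-well intracellular GFP measured by laser scanning cytometry, plus viability from ATP luminescence, each relative to plate median of non-targeting control wells, in %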. Direction: GFP, % of control: higher = more GFP per well, higher productivity; viability (ATP), % of control: higher = more viable cells (more ATP). Hit rule: 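Called active when intracellular GFP, relative to negative control, is at or above 120%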.
The whole screen tested about 50,000 reagents; this is a part drawn at random. About 4,000 of all reagents (8%) count as active. 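Mouse siRNA library applied to hamster cells; one well for each siRNA.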 Entries without a mark were called inactive. The numbers tell different reagents against one gene apart.

Target gene	reagent no.	GFP, % of control	viability (ATP), % of control
Casc3 (GeneID 192160)	1	173 (active)	97.1
Casc3 (GeneID 192160)	2	95.8	68.9
Casc3 (GeneID 192160)	3	137 (active)	68.2
Casc3 (GeneID 192160)	4	80.3	111
Casc3 (GeneID 192160)	5	83	90.8
Casc3 (GeneID 192160)	6	65	85.5
Usp17lc (GeneID 13532)	1	53.7	78.9
Usp17lc (GeneID 13532)	2	28.6	28.9
Usp17lc (GeneID 13532)	3	79.3	55.4
Ptger4 (GeneID 19219)	1	48.1	45.1
Ptger4 (GeneID 19219)	2	68	62.3
Ptger4 (GeneID 19219)	3	57.6	54.5
Col5a3 (GeneID 53867)	1	44.7	40.3
Col5a3 (GeneID 53867)	2	41.3	34.4
Col5a3 (GeneID 53867)	3	123 (active)	50.1
Vmn1r46 (GeneID 113856)	1	55.7	56.8
Vmn1r46 (GeneID 113856)	2	156 (active)	67.3
Vmn1r46 (GeneID 113856)	3	73.2	82.9
Spink12 (GeneID 78242)	1	72.9	61.1
Spink12 (GeneID 78242)	2	91.2	70.1
Spink12 (GeneID 78242)	3	126 (active)	91.2
Ermap (GeneID 27028)	1	70.6	71.7
Ermap (GeneID 27028)	2	69.2	52.6
Ermap (GeneID 27028)	3	75.6	77.6
Sdc2 (GeneID 15529)	1	67.2	72.5
Sdc2 (GeneID 15529)	2	85	83.2
Sdc2 (GeneID 15529)	3	44.4	44.5
Zfp956 (GeneID 101197)	1	90.1	83.4
Zfp956 (GeneID 101197)	2	85	61.9
Zfp956 (GeneID 101197)	3	133 (active)	91.5
Ypel1 (GeneID 106369)	1	57.1	71.8
Ypel1 (GeneID 106369)	2	52.7	51.5
Ypel1 (GeneID 106369)	3	98.5	89
Jade3 (GeneID 382207)	1	108	121
Jade3 (GeneID 382207)	2	101	84
Jade3 (GeneID 382207)	3	76.8	106
Stkld1 (GeneID 279029)	1	90.3	68.4
Stkld1 (GeneID 279029)	2	109	71.5
Stkld1 (GeneID 279029)	3	99.9	110
Spata21 (GeneID 329972)	1	95.5	70.6
Spata21 (GeneID 329972)	2	84.6	100
Spata21 (GeneID 329972)	3	70.3	68.6
Susd4 (GeneID 96935)	1	103	98.9
Susd4 (GeneID 96935)	2	120 (active)	111
Susd4 (GeneID 96935)	3	165 (active)	69.7
Susd4 (GeneID 96935)	4	77.8	91.2
Susd4 (GeneID 96935)	5	95.6	93.9
Susd4 (GeneID 96935)	6	93.4	80.7
Tmcc2 (GeneID 68875)	1	68.1	85.5
Tmcc2 (GeneID 68875)	2	47.8	63.2
Tmcc2 (GeneID 68875)	3	55.3	50.1
Or51b4 (GeneID 18367)	1	45.9	56.6
Or51b4 (GeneID 18367)	2	63.2	53.1
Or51b4 (GeneID 18367)	3	66.1	80.3
Med30 (GeneID 69790)	1	57.8	80.5
Med30 (GeneID 69790)	2	78.1	73.8
Med30 (GeneID 69790)	3	65.4	56.8
Ift81 (GeneID 12589)	1	97.5	108
Ift81 (GeneID 12589)	2	64.2	72.2
Ift81 (GeneID 12589)	3	80.8	98.6
Clic5 (GeneID 224796)	1	90.6	92
Clic5 (GeneID 224796)	2	167 (active)	103
Clic5 (GeneID 224796)	3	48.5	41.9
Sprr2e (GeneID 20759)	1	56.9	66.5
Sprr2e (GeneID 20759)	2	118	127
Sprr2e (GeneID 20759)	3	133 (active)	152
Zan (GeneID 22635)	1	71.6	62.7
Zan (GeneID 22635)	2	64.5	36
Zan (GeneID 22635)	3	92.2	88
Tgfbr2 (GeneID 21813)	1	111	89.4
Tgfbr2 (GeneID 21813)	2	71.9	89.5
Tgfbr2 (GeneID 21813)	3	66.4	66.1
Or5w18 (GeneID 258290)	1	13.6	13.4
Or5w18 (GeneID 258290)	2	75.4	57.4
Or5w18 (GeneID 258290)	3	87.4	67.9
Pno1 (GeneID 66249)	1	148 (active)	93.1
Pno1 (GeneID 66249)	2	79.6	58.2
Pno1 (GeneID 66249)	3	92.7	91.6
Retnlg (GeneID 245195)	1	113	76.4
Retnlg (GeneID 245195)	2	66.3	68.5
Retnlg (GeneID 245195)	3	63.2	98.8
Acer2 (GeneID 230379)	1	90.7	115
Acer2 (GeneID 230379)	2	60.6	55.4
Acer2 (GeneID 230379)	3	122 (active)	102
Mcf2 (GeneID 109904)	1	129 (active)	86.2
Mcf2 (GeneID 109904)	2	38.4	57.2
Mcf2 (GeneID 109904)	3	88.1	70.5
Cbx3 (GeneID 12417)	1	46.3	72.7
Cbx3 (GeneID 12417)	2	53.1	87.5
Cbx3 (GeneID 12417)	3	51.8	44.3
Tyrp1 (GeneID 22178)	1	83.8	94.4
Tyrp1 (GeneID 22178)	2	96.4	95.4
Tyrp1 (GeneID 22178)	3	70.7	71.2
Samtor (GeneID 101148)	1	111	63.1
Samtor (GeneID 101148)	2	66.9	80.2
Samtor (GeneID 101148)	3	58.6	67.7
Gzmb (GeneID 14939)	1	60.5	138
Gzmb (GeneID 14939)	2	66	78.1
Gzmb (GeneID 14939)	3	59.7	72.3
Gabrg3 (GeneID 14407)	1	103	61.4
Gabrg3 (GeneID 14407)	2	87.2	71.3
Gabrg3 (GeneID 14407)	3	73.1	73.6
Gabrg3 (GeneID 14407)	4	64.5	66.1
Gabrg3 (GeneID 14407)	5	98.1	69.4
Gabrg3 (GeneID 14407)	6	39.5	49.6
Pias2 (GeneID 17344)	1	71	79.9
Pias2 (GeneID 17344)	2	107	117
Pias2 (GeneID 17344)	3	110	101

Called active (from the list above):
Target gene	reagent no.	GFP, % of control	viability (ATP), % of control
Casc3 (GeneID 192160)	1	173 (active)	97.1
Casc3 (GeneID 192160)	3	137 (active)	68.2
Col5a3 (GeneID 53867)	3	123 (active)	50.1
Vmn1r46 (GeneID 113856)	2	156 (active)	67.3
Spink12 (GeneID 78242)	3	126 (active)	91.2
Zfp956 (GeneID 101197)	3	133 (active)	91.5
Susd4 (GeneID 96935)	2	120 (active)	111
Susd4 (GeneID 96935)	3	165 (active)	69.7
Clic5 (GeneID 224796)	2	167 (active)	103
Sprr2e (GeneID 20759)	3	133 (active)	152
Pno1 (GeneID 66249)	1	148 (active)	93.1
Acer2 (GeneID 230379)	3	122 (active)	102
Mcf2 (GeneID 109904)	1	129 (active)	86.2
